Where a name gives a salt, the structure may show the parent alone. Some of the results follow. The calls rarely recur for the same compound in another form.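 Kinases were expressed as nanoluciferase fusions in K562 cells and luminescence was read every 4 h between 2 and 18 h as percent of control, DMSO set to 100% and a positive control to 0%. A time point counts as decreased when the signal drops significantly (2 sigma). The hit call is the authors' own, does not follow from the count of time points alone, and its rule is not shown.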

Protein sequences, listed by entry. Tags and fused reporters are not part of them.
UniProt P15056, whole entry, looked up: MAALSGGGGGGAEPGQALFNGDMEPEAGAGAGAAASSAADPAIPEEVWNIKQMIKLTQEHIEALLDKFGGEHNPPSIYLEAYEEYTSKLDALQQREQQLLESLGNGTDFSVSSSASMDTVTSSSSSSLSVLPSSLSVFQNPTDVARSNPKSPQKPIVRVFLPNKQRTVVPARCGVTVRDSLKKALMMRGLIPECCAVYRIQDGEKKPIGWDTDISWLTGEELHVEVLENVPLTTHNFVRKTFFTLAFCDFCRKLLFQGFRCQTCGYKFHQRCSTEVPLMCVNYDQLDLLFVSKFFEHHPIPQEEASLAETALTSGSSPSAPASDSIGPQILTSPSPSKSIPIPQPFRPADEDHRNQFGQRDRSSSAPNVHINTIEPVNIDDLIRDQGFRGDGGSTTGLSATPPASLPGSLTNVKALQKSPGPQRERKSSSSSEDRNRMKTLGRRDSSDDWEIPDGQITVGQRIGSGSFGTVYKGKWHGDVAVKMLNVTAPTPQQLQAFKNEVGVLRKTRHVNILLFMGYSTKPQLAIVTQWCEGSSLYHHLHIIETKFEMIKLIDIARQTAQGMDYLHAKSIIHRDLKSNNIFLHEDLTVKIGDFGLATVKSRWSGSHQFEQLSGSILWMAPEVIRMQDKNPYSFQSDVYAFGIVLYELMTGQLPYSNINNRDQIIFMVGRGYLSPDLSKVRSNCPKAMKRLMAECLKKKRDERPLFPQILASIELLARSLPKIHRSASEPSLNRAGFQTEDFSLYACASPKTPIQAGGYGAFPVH

One assay concerns the target BRAF (UniProt P15056). Put plainly: kinase-Nluc reporter destabilization hit call (1 = scored as downregulated) (binary); higher = compound decreases kinase abundance. The conditions noted are these: K562; 2-18 h.
For the compound `O=C(O)c1ccc(/C=C/S(=O)(=O)Cc2ccc(Cl)cc2)cc1` [Recilisib] (10 µM), the “kinase-Nluc reporter destabilization hit call” value is inactive: 0.

Consider `Nc1nc(NCCNc2ncc(-n3ccnc3)c(-c3ccc(Cl)cc3Cl)n2)ccc1[N+](=O)[O-]` (2.5 µM), for which the “kinase-Nluc reporter destabilization hit call” value is inactive: 0. Turning to `Cc1cnc(NC(=O)c2cc(Oc3cnc(C(=O)N(C)C)nc3)c3cc(C)oc3c2)cn1` (10 µM), the “kinase-Nluc reporter destabilization hit call” value is inactive: 0. The same measure, in the same setting: the value for `CNC(=O)CNc1cnc2ccc(-c3ccc(OC)c(OC)c3)cc2n1` (10 µM) was inactive: 0. Turning to `N[C@@H]1CCCN(c2c(/C=C3\SC(=O)NC3=O)cccc2-c2ccccc2)C1` (10 µM), the “kinase-Nluc reporter destabilization hit call” value was inactive: 0. On the same count and under the same terms, the same measure for `CO[C@H]1C[C@@H]2CC[C@@H](C)[C@@](O)(O2)C(=O)C(=O)N2CCCC[C@H]2C(=O)O[C@H]([C@H](C)C[C@@H]2CC[C@@H](OC(=O)C(C)(CO)CO)[C@H](OC)C2)CC(=O)[C@H](C)/C=C(\C)[C@@H](O)[C@@H](OC)C(=O)[C@H](C)C[C@H](C)/C=C/C=C/C=C/1C` [Temsirolimus] (2.5 µM): inactive: 0. On the same count and under the same terms, the value for `COc1cc2nccc(Oc3ccc(NC(=O)c4cn(C(C)C)c(=O)n(-c5ccc(F)cc5)c4=O)cc3F)c2cc1OC` (0.5 µM) was inactive: 0. On the same count and under the same terms, the same measure for `C=C1CCC[C@]2(C)C=C3OC(=O)C(C)=C3C[C@@H]12` [Atractylenolide I] (10 µM): inactive: 0. Take `C=CC(=O)Nc1cc(Nc2nccc(-c3cn(C)c4ccccc34)n2)c(OC)cc1OCCN(C)C` [Rezivertinib] (2.5 µM): the “kinase-Nluc reporter destabilization hit call” value was inactive: 0.

As to `C=C1C(=O)[C@@]23[C@H](O)C[C@@H]4C(C)(C)C(=O)CC[C@@]4(C)[C@@H]2CC[C@@H]1[C@H]3O` [Glaucocalyxin A] (2.5 µM), the “kinase-Nluc reporter destabilization hit call” value is inactive: 0. Still for that read-out and setting: the same measure for `NC1(C(=O)NCCCn2cc(-c3ccc(OC(F)(F)F)cc3)c3cc(CN4CCN(Cc5c(Cl)cccc5Cl)CC4)ccc32)CCNCC1` (2.5 µM): inactive: 0; for `CC(Sc1nc2c(cnn2-c2cccc(Cl)c2)c(=O)[nH]1)C(N)=O` (centres undefined) (10 µM): inactive: 0; for `Fc1ccc2[nH]ccc2c1-c1nc(N2CCOCC2)c2sc(CN3CCN(CC4CC4)CC3)cc2n1` (10 µM): inactive: 0. On the same count and under the same terms, the value for `Cn1cc(-c2cc(Oc3cc(F)c(NC(=O)C4(C(=O)Nc5ccccc5)CC4)cc3F)ccn2)cn1` (2.5 µM) was inactive: 0; that for `COc1ccc(S(=O)(=O)Nc2cc(-c3c(O)ccc4ccccc34)c(O)c3ccccc23)cc1` (10 µM) was inactive: 0; that for `Cn1c2cc([S+](C)[O-])sc2c2cnn(Cc3cccc(N)c3)c(=O)c21` (centres undefined) (2.5 µM) was inactive: 0. On the same count and under the same terms, the same measure for `O=C(NCCO)c1cc(C(=O)NCCO)cc(C(=O)NCCO)c1` (10 µM): inactive: 0.

In the case of `N#Cc1cnc2c(Cl)cc(NCc3cn(CCN4CCCCCC4)nn3)cc2c1Nc1ccc(F)c(Cl)c1` [Cot inhibitor-1] (10 µM), the “kinase-Nluc reporter destabilization hit call” value is inactive: 0.

As for `Cn1c(=O)c2c(nc(S(C)(=O)=O)n2C)n(CC#Cc2cccc(O)c2)c1=O` (2.5 µM), the “kinase-Nluc reporter destabilization hit call” value was inactive: 0. Still for that read-out and setting: the value for `Cc1ccc(C)c(OCCn2cc(C(=O)O)c3ccccc32)c1` (10 µM) was inactive: 0. For the compound `C=CC(=O)Nc1ccc(C(=O)Nc2[nH]nc3c2CN(C(=O)N[C@H](CN(C)C)c2ccccc2)C3(C)C)cc1` (10 µM), the “kinase-Nluc reporter destabilization hit call” value was inactive: 0. For the compound `Nc1ncnc2c1nc(Br)n2[C@@H]1O[C@@H]2COP(=O)(O)O[C@H]2[C@H]1O` [8-Bromo-cAMP sodium salt] (10 µM), the “kinase-Nluc reporter destabilization hit call” value is inactive: 0.

Turning to `O=c1[nH]ccc2nc(-c3ccc(CN4CCC(c5nc(-c6ccccn6)n[nH]5)CC4)cc3)c(-c3ccccc3)cc12` (10 µM), the “kinase-Nluc reporter destabilization hit call” value was inactive: 0. On to `COc1ccc(Nc2ncc(C(F)(F)F)c(NC3CC3)n2)cc1OC` (10 µM), for which the “kinase-Nluc reporter destabilization hit call” value was inactive: 0. As to `O=C1NC(=O)/C(=C\c2c[nH]c(=O)c(-c3ccc(N4CCNCC4)nc3)c2)S1` [Protein kinase inhibitors 1 hydrochloride] (10 µM), the “kinase-Nluc reporter destabilization hit call” value was inactive: 0.

For `CCN(CC)CCCC(C)Nc1nc(C)cc(Nc2ccc3nc(C)cc(N)c3c2)n1` (centres undefined) (10 µM), the “kinase-Nluc reporter destabilization hit call” value is inactive: 0.

The next assay has as its system BRAF_V600E. Described as above. The conditions noted are these: K562; 2-18 h.
Take `CC(C)CCN1c2nc(Nc3cc(F)c(O)c(F)c3)ncc2N(C)C(=O)C1C` (centres undefined) (2.5 µM): the “kinase-Nluc reporter destabilization hit call” value is inactive: 0. On the same count and under the same terms, the same measure for `CC(C)=CC[C@@H](O)C1=CC(=O)c2c(O)ccc(O)c2C1=O` [Shikonin] (10 µM): inactive: 0; for `CCC(=O)Nc1cccc(Oc2nc(Nc3ccc(N4CCN(C)CC4)cc3OC)ncc2Cl)c1` (10 µM): inactive: 0; for `CC(C)=CCC/C(C)=C/CC/C(C)=C/C=C/C(C)=C/C(=O)O` [Peretinoin] (10 µM): inactive: 0. On the same count and under the same terms, the same measure for `COc1ccc2c(Oc3ccc4c(C(=O)Nc5ccccc5N)cccc4c3)ccnc2c1` [Chiauranib] (10 µM): inactive: 0; for `Cc1nn(C)cc1-c1nc2c(N3CCN(Cc4ccc(Cl)cc4)CC3)c(Cl)cnc2[nH]1` (10 µM): inactive: 0. As to `CNC(=O)c1cc2c(Oc3ccc(NC(=O)C4(C(=O)Nc5ccc(F)cc5)CC4)cc3)ccnc2cc1OC` (2.5 µM), the “kinase-Nluc reporter destabilization hit call” value is inactive: 0. Still for that read-out and setting: the same measure for `O=C(Nc1cccnc1)c1cc(-c2ccnc(F)c2)ccc1OCc1ccccc1` (10 µM): inactive: 0; for `CN(C)c1ccc(-c2nc3ncc(Cl)c(N4CCN(CC(=O)Nc5nccs5)CC4)c3[nH]2)cc1` (2 µM): inactive: 0; for `Cc1cc(C(=O)NC(C)(C)C)cc(C#Cc2ccc3c4c(oc3c2)C(C)(C)c2cc(NS(C)(=O)=O)ccc2C4=O)n1` (10 µM): inactive: 0. On the same count and under the same terms, the value for `O=C(O)c1cc(N(Cc2ccccc2O)Cc2cc(O)ccc2O)ccc1O` [Lavendustin A] (10 µM) was inactive: 0.

For the compound `C[C@@H](Nc1ncnc2[nH]c(-c3ccc(O)cc3)cc12)c1ccccc1` (2.5 µM), the “kinase-Nluc reporter destabilization hit call” value was inactive: 0. On the same count and under the same terms, the value for `O=C(O)c1ccc(/C=C/S(=O)(=O)Cc2ccc(Cl)cc2)cc1` [Recilisib] (10 µM) was inactive: 0; that for `Nc1nc(NCCNc2ncc(-n3ccnc3)c(-c3ccc(Cl)cc3Cl)n2)ccc1[N+](=O)[O-]` (2.5 µM) was inactive: 0. As for `Cc1cnc(NC(=O)c2cc(Oc3cnc(C(=O)N(C)C)nc3)c3cc(C)oc3c2)cn1` (10 µM), the “kinase-Nluc reporter destabilization hit call” value is inactive: 0. As to `CNC(=O)CNc1cnc2ccc(-c3ccc(OC)c(OC)c3)cc2n1` (10 µM), the “kinase-Nluc reporter destabilization hit call” value is inactive: 0.

Consider `N[C@@H]1CCCN(c2c(/C=C3\SC(=O)NC3=O)cccc2-c2ccccc2)C1` (10 µM), for which the “kinase-Nluc reporter destabilization hit call” value is inactive: 0. Take `CO[C@H]1C[C@@H]2CC[C@@H](C)[C@@](O)(O2)C(=O)C(=O)N2CCCC[C@H]2C(=O)O[C@H]([C@H](C)C[C@@H]2CC[C@@H](OC(=O)C(C)(CO)CO)[C@H](OC)C2)CC(=O)[C@H](C)/C=C(\C)[C@@H](O)[C@@H](OC)C(=O)[C@H](C)C[C@H](C)/C=C/C=C/C=C/1C` [Temsirolimus] (2.5 µM): the “kinase-Nluc reporter destabilization hit call” value was inactive: 0. The same measure, in the same setting: the same measure for `COc1cc2nccc(Oc3ccc(NC(=O)c4cn(C(C)C)c(=O)n(-c5ccc(F)cc5)c4=O)cc3F)c2cc1OC` (0.5 µM): inactive: 0; for `C=C1CCC[C@]2(C)C=C3OC(=O)C(C)=C3C[C@@H]12` [Atractylenolide I] (10 µM): inactive: 0; for `C=CC(=O)Nc1cc(Nc2nccc(-c3cn(C)c4ccccc34)n2)c(OC)cc1OCCN(C)C` [Rezivertinib] (2.5 µM): inactive: 0. Still for that read-out and setting: the same measure for `C=C1C(=O)[C@@]23[C@H](O)C[C@@H]4C(C)(C)C(=O)CC[C@@]4(C)[C@@H]2CC[C@@H]1[C@H]3O` [Glaucocalyxin A] (2.5 µM): inactive: 0; for `NC1(C(=O)NCCCn2cc(-c3ccc(OC(F)(F)F)cc3)c3cc(CN4CCN(Cc5c(Cl)cccc5Cl)CC4)ccc32)CCNCC1` (2.5 µM): inactive: 0. Regarding `CC(Sc1nc2c(cnn2-c2cccc(Cl)c2)c(=O)[nH]1)C(N)=O` (centres undefined) (10 µM), the “kinase-Nluc reporter destabilization hit call” value is inactive: 0. For the compound `Fc1ccc2[nH]ccc2c1-c1nc(N2CCOCC2)c2sc(CN3CCN(CC4CC4)CC3)cc2n1` (10 µM), the “kinase-Nluc reporter destabilization hit call” value was inactive: 0. Same read-out and setting: the same measure for `Cn1cc(-c2cc(Oc3cc(F)c(NC(=O)C4(C(=O)Nc5ccccc5)CC4)cc3F)ccn2)cn1` (2.5 µM): inactive: 0. Take `COc1ccc(S(=O)(=O)Nc2cc(-c3c(O)ccc4ccccc34)c(O)c3ccccc23)cc1` (10 µM): the “kinase-Nluc reporter destabilization hit call” value is inactive: 0. On the same count and under the same terms, the same measure for `Cn1c2cc([S+](C)[O-])sc2c2cnn(Cc3cccc(N)c3)c(=O)c21` (centres undefined) (2.5 µM): inactive: 0; for `O=C(NCCO)c1cc(C(=O)NCCO)cc(C(=O)NCCO)c1` (10 µM): inactive: 0; for `N#Cc1cnc2c(Cl)cc(NCc3cn(CCN4CCCCCC4)nn3)cc2c1Nc1ccc(F)c(Cl)c1` [Cot inhibitor-1] (10 µM): inactive: 0. Turning to `Cn1c(=O)c2c(nc(S(C)(=O)=O)n2C)n(CC#Cc2cccc(O)c2)c1=O` (2.5 µM), the “kinase-Nluc reporter destabilization hit call” value was inactive: 0. Same read-out and setting: the same measure for `Cc1ccc(C)c(OCCn2cc(C(=O)O)c3ccccc32)c1` (10 µM): inactive: 0; for `C=CC(=O)Nc1ccc(C(=O)Nc2[nH]nc3c2CN(C(=O)N[C@H](CN(C)C)c2ccccc2)C3(C)C)cc1` (10 µM): active: 1.

For `Nc1ncnc2c1nc(Br)n2[C@@H]1O[C@@H]2COP(=O)(O)O[C@H]2[C@H]1O` [8-Bromo-cAMP sodium salt] (10 µM), the “kinase-Nluc reporter destabilization hit call” value is inactive: 0. The same measure, in the same setting: the value for `O=c1[nH]ccc2nc(-c3ccc(CN4CCC(c5nc(-c6ccccn6)n[nH]5)CC4)cc3)c(-c3ccccc3)cc12` (10 µM) was inactive: 0; that for `COc1ccc(Nc2ncc(C(F)(F)F)c(NC3CC3)n2)cc1OC` (10 µM) was inactive: 0; that for `O=C1NC(=O)/C(=C\c2c[nH]c(=O)c(-c3ccc(N4CCNCC4)nc3)c2)S1` [Protein kinase inhibitors 1 hydrochloride] (10 µM) was inactive: 0. Same read-out and setting: the same measure for `CCN(CC)CCCC(C)Nc1nc(C)cc(Nc2ccc3nc(C)cc(N)c3c2)n1` (centres undefined) (10 µM): inactive: 0.
